From article PMC11157765 come the findings set out here.

Chains of the proteins cited; added tags and fusions are not shown. Lines headed by an entry give the natural chain unless they say otherwise; changes in a name come on top.
UniProt Q6UX06: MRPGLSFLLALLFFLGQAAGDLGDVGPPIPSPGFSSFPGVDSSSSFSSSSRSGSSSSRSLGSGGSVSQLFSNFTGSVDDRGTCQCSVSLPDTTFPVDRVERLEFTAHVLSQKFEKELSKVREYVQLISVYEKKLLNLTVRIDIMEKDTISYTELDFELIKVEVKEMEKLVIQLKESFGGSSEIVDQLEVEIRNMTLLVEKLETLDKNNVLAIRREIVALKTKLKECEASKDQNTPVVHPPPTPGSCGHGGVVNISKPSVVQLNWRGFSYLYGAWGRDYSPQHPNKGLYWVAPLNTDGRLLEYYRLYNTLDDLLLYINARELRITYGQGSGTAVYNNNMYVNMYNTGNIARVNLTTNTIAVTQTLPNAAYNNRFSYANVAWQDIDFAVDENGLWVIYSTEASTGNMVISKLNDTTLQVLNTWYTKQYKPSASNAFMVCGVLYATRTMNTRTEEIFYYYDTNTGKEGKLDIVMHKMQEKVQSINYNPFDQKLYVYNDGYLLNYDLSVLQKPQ
UniProt P35579: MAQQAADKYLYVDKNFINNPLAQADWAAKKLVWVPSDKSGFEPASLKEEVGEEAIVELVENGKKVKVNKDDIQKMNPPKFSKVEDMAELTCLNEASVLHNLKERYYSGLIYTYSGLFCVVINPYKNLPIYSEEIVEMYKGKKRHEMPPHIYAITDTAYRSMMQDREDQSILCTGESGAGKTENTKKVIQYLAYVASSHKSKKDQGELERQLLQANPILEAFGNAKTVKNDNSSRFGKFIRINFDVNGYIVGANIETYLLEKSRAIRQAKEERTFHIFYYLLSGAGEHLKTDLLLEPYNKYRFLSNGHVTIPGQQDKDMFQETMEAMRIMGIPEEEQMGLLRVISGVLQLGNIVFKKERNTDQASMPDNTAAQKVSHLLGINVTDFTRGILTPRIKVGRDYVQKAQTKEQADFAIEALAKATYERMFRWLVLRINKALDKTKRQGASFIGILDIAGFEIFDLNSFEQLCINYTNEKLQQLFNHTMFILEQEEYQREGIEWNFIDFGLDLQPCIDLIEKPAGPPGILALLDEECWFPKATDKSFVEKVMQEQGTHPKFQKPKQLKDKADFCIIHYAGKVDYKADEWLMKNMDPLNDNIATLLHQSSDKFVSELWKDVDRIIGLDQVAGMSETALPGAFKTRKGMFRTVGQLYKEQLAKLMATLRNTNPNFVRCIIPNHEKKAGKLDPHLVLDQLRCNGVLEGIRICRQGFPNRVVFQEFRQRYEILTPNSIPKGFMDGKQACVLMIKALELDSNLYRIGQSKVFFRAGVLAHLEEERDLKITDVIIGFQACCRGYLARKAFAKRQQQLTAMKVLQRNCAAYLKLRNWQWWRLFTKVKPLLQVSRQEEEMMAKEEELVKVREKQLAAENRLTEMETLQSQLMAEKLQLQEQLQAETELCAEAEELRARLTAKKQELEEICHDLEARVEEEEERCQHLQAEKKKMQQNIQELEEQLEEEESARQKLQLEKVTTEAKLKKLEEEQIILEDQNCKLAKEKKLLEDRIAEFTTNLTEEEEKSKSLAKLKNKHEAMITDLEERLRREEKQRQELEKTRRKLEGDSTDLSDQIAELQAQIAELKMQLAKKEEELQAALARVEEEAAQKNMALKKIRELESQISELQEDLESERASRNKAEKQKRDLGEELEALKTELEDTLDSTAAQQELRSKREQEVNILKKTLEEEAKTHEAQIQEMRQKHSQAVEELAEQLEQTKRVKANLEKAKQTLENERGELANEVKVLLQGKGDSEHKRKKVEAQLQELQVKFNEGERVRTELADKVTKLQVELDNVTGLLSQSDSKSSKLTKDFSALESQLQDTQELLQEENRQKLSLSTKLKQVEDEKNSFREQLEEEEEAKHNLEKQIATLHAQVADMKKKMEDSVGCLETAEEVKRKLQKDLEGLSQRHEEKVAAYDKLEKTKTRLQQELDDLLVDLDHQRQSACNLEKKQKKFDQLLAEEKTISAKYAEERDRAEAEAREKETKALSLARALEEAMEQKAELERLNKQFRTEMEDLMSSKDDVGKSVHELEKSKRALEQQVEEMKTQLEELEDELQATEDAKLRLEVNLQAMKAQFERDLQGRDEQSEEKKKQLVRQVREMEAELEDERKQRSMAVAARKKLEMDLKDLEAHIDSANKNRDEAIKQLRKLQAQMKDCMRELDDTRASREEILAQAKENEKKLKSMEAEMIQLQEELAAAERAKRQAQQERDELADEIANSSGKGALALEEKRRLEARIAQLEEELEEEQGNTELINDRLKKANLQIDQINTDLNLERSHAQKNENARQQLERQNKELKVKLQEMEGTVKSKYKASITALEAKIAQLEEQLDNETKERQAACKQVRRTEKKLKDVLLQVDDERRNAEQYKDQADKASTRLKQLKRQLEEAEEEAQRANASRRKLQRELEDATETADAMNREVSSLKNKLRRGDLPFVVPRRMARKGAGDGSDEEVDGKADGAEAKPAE

These are yes or no findings as the source states them, for the method shown. Binding seen in cells or lysates may run through a third protein.

This test addresses OLFM4 G438 mutation (UniProt Q6UX06). The test can be described thus: co-IP; GES-1 cells transfected with G438 mutation plasmids; Co-IP for OLFM4 and MYH9; the precipitating antibody is not told.

Turning to “Myosin heavy chain 9 (MYH9) (from UniProt P35579 1-1960)”, the binding entry was “no binding”.
